The source of these data is patent EP1103603A2.

No constants are given. Whether binding was seen depends on the method and setting. Binding seen in cells or lysates may run through a third protein. Binding calls can cover weak binding; strength is not graded here. Tags and fused reporters may be left off the sequences shown.

The target of this test is cytochrome c oxidase core subunit II (CO II) of Gluconobacter oxydans DSM 4025 (Gluconobacter oxydans DSM 4025). Briefly: co-purification from solubilized membranes (DEAE-Toyopearl, hydroxylapatite); single band on native-PAGE, two bands (CO I, CO II) on SDS-PAGE.

B1: cytochrome c oxidase core subunit I (CO I) of Gluconobacter oxydans DSM 4025 (enzyme)
chain: MADAAIHGHDHHEKQGFFTRWFMSTNHKDIGLLYLVAAGVVGFISVLFTVYMRLELMDPGVQYMCLEGARLIADASQTCTANGHLWNVMVTYHGILMMFFVGIPALFGGFGNYLMPLQIGAPDMAFPRMNNLSFWLFIAGTAMGVASLFAPGGDGQLGSGVGWVLYPPLSTREAGYSMDLAIFAVHLSGASSIMGAINMITTFLNMRAPGMTLHKVPLFSWSIFITAWLILLALPVLAGAITMLLTDRNFGTTFFNPAGGGDPILYQHILWFFGHPEVYIIILPGFGIISHVVSTFSKKPVFGYLPMVYAMVAIGVLGFVVWAHHMYTVGMSLTQQSYFMLATMVIAVPTGIKIFSWIATMWGGSVEFKSPMLWAFGFMFLFTVGGVTGIVLAQAGLDRAYHDTYYVVAHFHYVMSLGAIFAIFAGIYFYMPKFSGRAFPEWAAKLHFWTFFIGANVTFFPQHFLGRQGMPRRYIDYPEAFALWNKVSSYGAFLAFASFLFFIVIFVYTLVAGRRETRPNPWGEFADTLEWTLPSPPPAHTFETLPKRSDWDKHPSH
modifications: N-terminal alpha-amino residue blocked by unidentified modification
With B1, the binding result is reported as “binds”.
